For 1 molecule, binding results are on record in publication doi:10.1101/2024.09.09.612121.

Experiment [1] deals with T1, full-length hexa-histidine tagged wild-type Kar9 (budding yeast) (UniProt P32526).
T1 sequence: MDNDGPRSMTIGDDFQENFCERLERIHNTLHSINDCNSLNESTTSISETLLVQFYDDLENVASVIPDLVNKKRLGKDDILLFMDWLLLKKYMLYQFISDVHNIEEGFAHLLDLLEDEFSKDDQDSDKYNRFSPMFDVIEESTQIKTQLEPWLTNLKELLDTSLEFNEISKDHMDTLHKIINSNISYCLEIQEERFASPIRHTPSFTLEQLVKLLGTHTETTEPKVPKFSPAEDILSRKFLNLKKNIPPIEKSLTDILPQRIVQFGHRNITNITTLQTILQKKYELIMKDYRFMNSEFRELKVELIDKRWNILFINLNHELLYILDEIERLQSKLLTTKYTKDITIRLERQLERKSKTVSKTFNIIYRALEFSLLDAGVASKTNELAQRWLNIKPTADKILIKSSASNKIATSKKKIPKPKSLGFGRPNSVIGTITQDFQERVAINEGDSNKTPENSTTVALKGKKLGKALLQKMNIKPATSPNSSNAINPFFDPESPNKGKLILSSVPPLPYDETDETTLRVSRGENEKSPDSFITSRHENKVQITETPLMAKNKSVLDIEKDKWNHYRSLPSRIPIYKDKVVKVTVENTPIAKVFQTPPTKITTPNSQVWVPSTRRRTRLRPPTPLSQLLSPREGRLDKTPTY
The experiment is described as follows: co-purification.

Experiment [2] deals with T2, full-length hexa-histidine tagged self-oligomerization interface mutant Kar9 (budding yeast) (UniProt P32526).
T2 sequence: T1 sequence with R237A, N241A, F292A, L347A, Y366A, R367A
As to the kind of experiment: co-purification.

Changes are numbered by the printed parent chain. These are yes or no findings as the source states them, for the method shown. Some binding calls cover weakened binding; strength is not graded here. Sequences can lack the tags named with a protein.

B1: full-length Bim1 (protein, UniProt P40013 1-344)
chain: MSAGIGESRTELLTWLNGLLNLNYKKIEECGTGAAYCQIMDSIYGDLPMNRVKFNATAEYEFQTNYKILQSCFSRHGIEKTVYVDKLIRCKFQDNLEFLQWLKKHWIRHKDESVYDPDARRKYRPIITNNSATKPRTVSNPTTAKRSSSTGTGSAMSGGLATRHSSLGINGSRKTSVTQGQLVAIQAELTKSQETIGSLNEEIEQYKGTVSTLEIEREFYFNKLRDIEILVHTTQDLINEGVYKFNDETITGHGNGNGGALLRFVKKVESILYATAEGFEMNDGEDELNDKNLGEHGTVPNQGGYANSNGEVNGNEGSNHDVIMQNDEGEVGVSNNLIIDEETF
Regarding B1, the binding entry in experiment [1] and in experiment [2] was “binds” throughout.
